# ChEMBL document CHEMBL4303122, “Identification of potential treatments for COVID-19 through artificial intelligence-enabled phenomic analysis of human cells infected with SARS-CoV-2” (2020)
# The full ranking holds about 1,600 compounds; the median of “Hit score” is about 0.13, and the highest 2% start at about 0.46. The list shows a part of the results.
# Tested on: SARS-CoV-2
# Test: Antiviral activity against SARS-CoV-2 (USA-WA1/2020 strain) measured by imaging in HRCE cells at MOI 0.4 after 96 hrs (reported as hit score from 0-1 for on-disease vs off-disease activity: scores >0.6 considered hits)
# Format: functional, Homo sapiens
row,SMILES,Hit score
1,C[C@]12C=CC(=O)C=C1CC[C@@H]1[C@@H]2[C@@H](O)C[C@@]2(C)[C@H]1CC[C@]2(O)C(=O)CO [PREDNISOLONE],0.03404
2,Cc1ccc(NC(=O)c2ccc(CN3CCN(C)CC3)cc2)cc1Nc1nccc(-c2cccnc2)n1 [IMATINIB],0.06765
3,CC(C)C(=O)Oc1ccc(CO)cc1[C@H](CCN(C(C)C)C(C)C)c1ccccc1 [FESOTERODINE],0.03098
4,CCc1cc2c(cc1N1CCC(N3CCOCC3)CC1)C(C)(C)c1[nH]c3cc(C#N)ccc3c1C2=O [ALECTINIB],0.09966
5,CCc1c2c(nc3ccc(O)cc13)-c1cc3c(c(=O)n1C2)COC(=O)[C@]3(O)CC [7-ETHYL-10-HYDROXYCAMPTOTHECIN],0.3015
6,COc1ccc(-c2cc(=S)ss2)cc1 [ANETHOLTRITHION],0.1126
7,C1COC(NC(C2CC2)C2CC2)=N1 [RILMENIDINE],0.1025
8,C#CCN[C@@H]1CCc2ccccc21 [RASAGILINE],0.177
9,CCOc1nc2cccc(C(=O)OCc3oc(=O)oc3C)c2n1Cc1ccc(-c2ccccc2-c2noc(=O)[nH]2)cc1 [AZILSARTAN MEDOXOMIL],0.1452
10,O=C(O)c1cn(C2CC2)c2cc(N3CCNCC3)c(F)cc2c1=O [CIPROFLOXACIN],0.1255
11,CCc1nc(N)nc(N)c1-c1ccc(Cl)cc1 [PYRIMETHAMINE],0.2473
12,CC(C)NCC(O)COc1ccc(CCOCC2CC2)cc1 (stereo not given) [BETAXOLOL],0.2742
13,C1CCC(C(CC2CCCCN2)C2CCCCC2)CC1 (stereo not given) [PERHEXILINE],0.1976
14,COc1cc(C(=O)NCc2ccc(OCCN(C)C)cc2)cc(OC)c1OC [TRIMETHOBENZAMIDE],0.1981
15,CCCN1CCCC[C@H]1C(=O)Nc1c(C)cccc1C [ROPIVACAINE],0.03443
16,Cc1ccc2c(c1)c1c3n2CCNC3CCC1 (stereo not given) [PIRLINDOLE],0.1098
17,CC1=NN(c2ccccc2)C(=O)C1 [EDARAVONE],0.13
18,N#C/C(=C\c1cn(-c2ccccc2)c2ccccc12)C(=O)O,0.06944

row,SMILES,Hit score
1,Cn1cnc2c1c(=O)[nH]c(=O)n2C [THEOBROMINE],0.2208
2,CCN(CC)CCNC(=O)c1cc(Cl)c(N)cc1OC [METOCLOPRAMIDE],0.1755
3,Cc1sc(C)c(C(=O)NC2(c3ccc(C(=O)O)cc3)CC2)c1Cc1ccc(C(F)(F)F)cc1,0.1909
4,OCc1cccnc1 [NICOTINYL ALCOHOL],0.2034
5,CC1=CC(=O)C(C(C)C)=CC1=O [THYMOQUINONE],0.1059
6,COc1ccccc1Oc1c(NS(=O)(=O)c2ccc(C(C)(C)C)cc2)nc(-c2ncccn2)nc1OCCO [BOSENTAN],0.2095
7,COc1cc(C(=S)N2CCOCC2)cc(OC)c1OC [TRITIOZINE],0.1798
8,CC(C)[N+](C)(CCOC(=O)C1c2ccccc2Oc2ccccc21)C(C)C [PROPANTHELINE],0.1356
9,CN1CCC[C@@H]1Cc1c[nH]c2ccc(CCS(=O)(=O)c3ccccc3)cc12,0.1607
10,CN(C)CCC=C1c2ccccc2COc2ccccc21 [DOXEPIN],-0.01345
11,CC(C)Nc1cccnc1N1CCN(C(=O)c2cc3cc(NS(C)(=O)=O)ccc3[nH]2)CC1 [DELAVIRDINE],0.1383
12,N#Cc1ccc(C2CCCc3cncn32)cc1 (stereo not given) [FADROZOLE],-0.02831
13,C#Cc1cccc(Nc2ncnc3cc(OCCOC)c(OCCOC)cc23)c1 [ERLOTINIB],0.1311
14,CO/C1=C\C(C)=C\[C@@H](C)[C@@H](O)[C@@H](C)C/C(C)=C/C=C/[C@H](OC)[C@@H]([C@@H](C)[C@@H](O)[C@H](C)[C@@]2(O)C[C@@H](O)[C@H](C)[C@@H](C(C)C)O2)OC1=O [BAFILOMYCIN A1],0.2403
15,C/C(=C(/CCO)SSCC1CCCO1)N(C=O)Cc1cnc(C)nc1N (stereo not given) [FURSULTIAMINE],0.06698
16,CC[C@@]1(O)C(=O)OCc2c1cc1n(c2=O)Cc2c-1nc1ccccc1c2CCNC(C)C [BELOTECAN],0.3416
17,CC[C@H]1OC(=O)[C@H](C)[C@@H](O[C@H]2C[C@@](C)(OC)[C@@H](O)[C@H](C)O2)[C@H](C)[C@@H](O[C@@H]2O[C@H](C)C[C@H](N(C)C)[C@H]2O)[C@](C)(O)C[C@@H](C)/C(=N\OCOCCOC)[C@H](C)[C@@H](O)[C@]1(C)O [ROXITHROMYCIN],0.1457

# Pulled by structure from above:
row,SMILES,Hit score
11,CC(C)Nc1cccnc1N1CCN(C(=O)c2cc3cc(NS(C)(=O)=O)ccc3[nH]2)CC1 [DELAVIRDINE],0.1383
12,N#Cc1ccc(C2CCCc3cncn32)cc1 (stereo not given) [FADROZOLE],-0.02831
